# Results from patent US12685791B2, “Free PSA antibodies as diagnostics, prognostics and therapeutics for prostate cancer” (Memorial Sloan Kettering Cancer Center, priority 2011, dated 2026).
# Values joined by “and” are separate entries in the source; they are usually repeats but may differ in a detail not shown here. Identical values can stand only once.
# Tested on: fPSA and tPSA
# Test: Tumor PSA ELISA, castrate male mice bearing LNCaP-AR tumors treated with vehicle or MDV3100 (Table 14)
# Type: in vivo, human
# Conditions: individual mice, listed as MDV
# Protocol: Mice were injected with ^89Zr-5A10, and at the indicated time point post injection, were sacrificed for PSA analysis. Tumor tissues were surgically excised. fPSA and total PSA (“tPSA”) were determined with PSA-directed ELISA, and the values were normalized to total protein concentration. fPSA concentrations are reported as average ng/ml(a), total PSA (“tPSA”) concentrations are reported as ng/mL (b), and total protein concentrations are reported as ng/mg (c). ELISAs were conducted as follows for PSA detection in serum and tumor tissues. fPSA and tPSA were measured with a dual-label immunofluorometric assay (DELFIA Prostatus™ PSA Free/Total PSA; Perkin-Elmer Life Sciences) according to manufacturer's recommendations. This assay measured fPSA and complexed PSA (cPSA) in an equimolar fashion^8, and the cross-reactivity of PSA-ACT for fPSA was <0.2%^9. […] For detection, the 1235 automatic immunoassay system from Perkin-Elmer Life Sciences was used. cPSA concentrations were calculated by subtracting fPSA from tPSA.
# As expected, each dose of MDV3100 inhibited AR signaling and fPSA synthesis (Table 14). Table 14 provides data regarding tumor analysis of PSA expression levels via ELISA in castrate male mice bearing LNCaP-AR tumors treated with antiandrogens. Castrate male mice bearing LNCaP-AR xenografts received a daily oral gavage of vehicle (VEH #), 10 mg/kg (MDV10 #), 40 mg/kg (MDV40 #), or 80 mg/kg (MDV80 #). Six days post manipulation, mice were injected with ^89Zr-5A10. Twenty four hours post injection, mice were sacrificed for PSA analysis. Tumor tissues were surgically excised. fPSA and tPSA were determined with PSA-directed ELISA (as above), and in the case of intratumoral PSA, the values were normalized to total protein concentration. ^afPSA concentrations are reported as ng/ml, ^btotal PSA concentrations are reported as ng/mL, ^ctotal protein concentrations are reported as ng/mg. Abbreviations: fPSA, fPSA; tPSA, total PSA.
smiles,measurement,setting,value
CNC(=O)c1ccc(N2C(=S)N(c3ccc(C#N)c(C(F)(F)F)c3)C(=O)C2(C)C)cc1F [MDV3100],Total Protein,"10 mg/kg daily oral gavage, 10 mg/kg",5.82 ng/mg and 6.92 ng/mg and 4.50 ng/mg and 9.20 ng/mg
same,Total Protein,"40 mg/kg daily oral gavage, 40 mg/kg",6.13 ng/mg and 7.04 ng/mg and 6.50 ng/mg
same,Total Protein,"80 mg/kg daily oral gavage, 80 mg/kg",5.05 ng/mg and 7.52 ng/mg and 5.74 ng/mg
